{"sequences": {"note": "By UniProt entry, the sequences of proteins in these tests, tags left out. Where a name states a change or a piece, a line headed by the entry shows the natural chain unless it says otherwise. Residues count along the entry.", "UniProt Q15814": "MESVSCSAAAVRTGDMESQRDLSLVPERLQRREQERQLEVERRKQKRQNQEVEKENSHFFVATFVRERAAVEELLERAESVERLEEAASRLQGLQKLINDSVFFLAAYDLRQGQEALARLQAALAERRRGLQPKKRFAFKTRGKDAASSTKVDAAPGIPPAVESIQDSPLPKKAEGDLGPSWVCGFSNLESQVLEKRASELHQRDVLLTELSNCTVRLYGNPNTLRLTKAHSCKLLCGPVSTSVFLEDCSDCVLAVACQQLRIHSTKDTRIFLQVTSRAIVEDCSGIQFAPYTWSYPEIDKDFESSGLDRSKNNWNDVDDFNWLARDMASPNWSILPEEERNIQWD", "UniProt O75410": "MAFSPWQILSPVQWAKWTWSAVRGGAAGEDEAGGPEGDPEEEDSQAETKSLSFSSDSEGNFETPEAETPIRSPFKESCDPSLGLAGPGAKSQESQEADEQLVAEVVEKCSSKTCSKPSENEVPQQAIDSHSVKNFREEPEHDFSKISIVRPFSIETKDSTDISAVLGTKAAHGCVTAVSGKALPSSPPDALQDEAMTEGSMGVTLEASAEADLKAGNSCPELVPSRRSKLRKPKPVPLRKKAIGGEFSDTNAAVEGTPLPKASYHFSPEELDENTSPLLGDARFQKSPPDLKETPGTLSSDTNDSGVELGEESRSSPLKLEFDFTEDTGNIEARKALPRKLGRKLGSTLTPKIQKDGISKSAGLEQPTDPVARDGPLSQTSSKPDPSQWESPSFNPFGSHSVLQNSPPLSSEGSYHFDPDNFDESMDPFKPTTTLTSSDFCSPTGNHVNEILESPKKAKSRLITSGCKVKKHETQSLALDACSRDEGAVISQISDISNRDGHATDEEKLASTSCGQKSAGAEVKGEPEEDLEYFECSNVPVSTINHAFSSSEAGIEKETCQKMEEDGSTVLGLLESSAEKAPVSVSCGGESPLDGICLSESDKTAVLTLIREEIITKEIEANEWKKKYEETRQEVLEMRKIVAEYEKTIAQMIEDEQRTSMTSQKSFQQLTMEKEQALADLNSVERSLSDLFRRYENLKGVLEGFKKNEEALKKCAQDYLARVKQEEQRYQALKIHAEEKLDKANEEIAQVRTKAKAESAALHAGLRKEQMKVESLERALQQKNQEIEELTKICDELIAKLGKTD", "UniProt Q93075": "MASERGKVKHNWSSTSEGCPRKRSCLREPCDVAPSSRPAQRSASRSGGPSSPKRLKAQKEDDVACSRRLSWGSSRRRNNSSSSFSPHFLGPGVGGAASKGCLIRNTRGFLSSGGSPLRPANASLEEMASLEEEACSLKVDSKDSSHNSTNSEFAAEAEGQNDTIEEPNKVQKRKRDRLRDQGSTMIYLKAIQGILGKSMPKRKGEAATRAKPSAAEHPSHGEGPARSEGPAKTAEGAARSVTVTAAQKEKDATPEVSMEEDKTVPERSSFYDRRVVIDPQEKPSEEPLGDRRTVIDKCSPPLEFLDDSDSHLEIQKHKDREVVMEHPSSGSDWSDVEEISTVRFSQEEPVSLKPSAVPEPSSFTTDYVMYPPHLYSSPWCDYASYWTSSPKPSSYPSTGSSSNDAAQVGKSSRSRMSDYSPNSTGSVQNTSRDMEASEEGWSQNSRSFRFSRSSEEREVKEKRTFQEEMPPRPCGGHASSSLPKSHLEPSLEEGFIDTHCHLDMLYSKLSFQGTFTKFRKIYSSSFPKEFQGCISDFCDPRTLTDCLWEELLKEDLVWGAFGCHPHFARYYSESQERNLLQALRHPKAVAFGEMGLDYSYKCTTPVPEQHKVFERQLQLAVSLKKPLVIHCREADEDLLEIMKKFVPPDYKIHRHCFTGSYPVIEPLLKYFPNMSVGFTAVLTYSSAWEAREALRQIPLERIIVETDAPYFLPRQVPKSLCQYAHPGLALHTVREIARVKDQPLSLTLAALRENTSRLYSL", "UniProt Q53T94, 181-201": "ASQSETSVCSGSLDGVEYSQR", "UniProt Q9NU19": "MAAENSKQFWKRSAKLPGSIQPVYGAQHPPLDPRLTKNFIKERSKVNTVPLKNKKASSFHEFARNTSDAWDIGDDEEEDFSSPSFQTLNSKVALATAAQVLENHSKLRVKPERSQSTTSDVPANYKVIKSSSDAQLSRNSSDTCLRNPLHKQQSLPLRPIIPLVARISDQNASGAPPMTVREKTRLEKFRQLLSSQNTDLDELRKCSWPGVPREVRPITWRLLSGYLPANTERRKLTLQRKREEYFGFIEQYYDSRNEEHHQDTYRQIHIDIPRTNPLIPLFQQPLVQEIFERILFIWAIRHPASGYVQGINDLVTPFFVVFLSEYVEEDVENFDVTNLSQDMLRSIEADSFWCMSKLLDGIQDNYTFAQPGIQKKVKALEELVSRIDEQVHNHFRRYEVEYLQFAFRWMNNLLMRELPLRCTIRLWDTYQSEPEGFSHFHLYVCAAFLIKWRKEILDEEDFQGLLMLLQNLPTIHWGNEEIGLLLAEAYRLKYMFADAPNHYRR", "UniProt Q9ULP9": "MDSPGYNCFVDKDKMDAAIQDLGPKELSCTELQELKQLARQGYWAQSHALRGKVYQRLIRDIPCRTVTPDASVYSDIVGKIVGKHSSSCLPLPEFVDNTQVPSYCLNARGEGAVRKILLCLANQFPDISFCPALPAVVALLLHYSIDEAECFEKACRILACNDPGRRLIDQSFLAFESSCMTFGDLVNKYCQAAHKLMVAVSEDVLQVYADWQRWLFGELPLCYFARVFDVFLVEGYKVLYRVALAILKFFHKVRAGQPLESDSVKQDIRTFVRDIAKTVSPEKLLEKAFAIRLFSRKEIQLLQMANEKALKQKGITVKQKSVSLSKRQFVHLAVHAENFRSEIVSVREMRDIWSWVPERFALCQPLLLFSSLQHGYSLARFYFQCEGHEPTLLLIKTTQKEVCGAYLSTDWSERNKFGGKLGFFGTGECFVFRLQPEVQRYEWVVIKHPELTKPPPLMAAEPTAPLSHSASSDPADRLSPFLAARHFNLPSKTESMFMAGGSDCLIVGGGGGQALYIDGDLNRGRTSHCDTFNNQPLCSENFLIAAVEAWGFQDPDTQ", "UniProt O15119": "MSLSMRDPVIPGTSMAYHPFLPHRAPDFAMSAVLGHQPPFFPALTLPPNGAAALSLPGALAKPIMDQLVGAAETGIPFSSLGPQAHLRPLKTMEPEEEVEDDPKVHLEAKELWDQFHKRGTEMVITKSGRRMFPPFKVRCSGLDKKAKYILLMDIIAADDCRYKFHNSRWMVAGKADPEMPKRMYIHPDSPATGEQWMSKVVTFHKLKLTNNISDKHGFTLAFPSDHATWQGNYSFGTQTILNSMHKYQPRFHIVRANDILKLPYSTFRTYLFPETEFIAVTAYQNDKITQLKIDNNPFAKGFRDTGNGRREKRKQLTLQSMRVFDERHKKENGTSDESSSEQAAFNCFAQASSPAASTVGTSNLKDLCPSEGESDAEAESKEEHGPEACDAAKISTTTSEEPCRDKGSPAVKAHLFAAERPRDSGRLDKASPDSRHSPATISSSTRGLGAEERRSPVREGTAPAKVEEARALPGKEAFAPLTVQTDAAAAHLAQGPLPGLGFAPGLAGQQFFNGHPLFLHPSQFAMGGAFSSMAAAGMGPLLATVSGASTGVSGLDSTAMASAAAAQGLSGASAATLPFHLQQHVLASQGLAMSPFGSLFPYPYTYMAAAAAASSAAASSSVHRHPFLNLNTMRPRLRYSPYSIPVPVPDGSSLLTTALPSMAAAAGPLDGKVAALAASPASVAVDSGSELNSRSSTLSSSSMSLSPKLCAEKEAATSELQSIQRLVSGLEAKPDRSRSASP", "UniProt Q92609": "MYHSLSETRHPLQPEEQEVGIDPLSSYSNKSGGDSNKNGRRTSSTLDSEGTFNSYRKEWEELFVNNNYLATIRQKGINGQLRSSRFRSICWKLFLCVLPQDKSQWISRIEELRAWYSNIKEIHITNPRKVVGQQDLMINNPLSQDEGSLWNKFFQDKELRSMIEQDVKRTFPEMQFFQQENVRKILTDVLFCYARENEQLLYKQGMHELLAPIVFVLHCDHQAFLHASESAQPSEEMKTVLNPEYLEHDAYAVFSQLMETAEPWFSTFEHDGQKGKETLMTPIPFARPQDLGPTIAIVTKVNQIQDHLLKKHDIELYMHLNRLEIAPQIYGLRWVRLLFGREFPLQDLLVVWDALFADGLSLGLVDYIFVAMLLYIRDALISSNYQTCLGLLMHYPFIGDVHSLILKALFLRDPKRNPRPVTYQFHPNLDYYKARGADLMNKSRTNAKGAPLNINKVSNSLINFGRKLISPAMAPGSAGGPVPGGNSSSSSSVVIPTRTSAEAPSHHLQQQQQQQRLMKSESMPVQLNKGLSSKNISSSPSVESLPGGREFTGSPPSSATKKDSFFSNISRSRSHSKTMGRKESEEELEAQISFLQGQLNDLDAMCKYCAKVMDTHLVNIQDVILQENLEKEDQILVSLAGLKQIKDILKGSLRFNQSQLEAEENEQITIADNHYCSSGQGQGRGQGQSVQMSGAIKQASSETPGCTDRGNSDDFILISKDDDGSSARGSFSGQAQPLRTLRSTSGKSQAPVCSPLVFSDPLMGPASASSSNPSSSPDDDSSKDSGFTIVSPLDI"}, "source": "the supplement of paper PMC11732987", "about": "“Enantioselective OTUD7B fragment discovery through chemoproteomics screening and high-throughput optimisation” (Communications Chemistry, 2025)", "note": "The list shows a part of the results. The data scatter; read single values as rough.", "data": [{"compound": "ClCC(=O)N[C@@H]1CCCc2ccccc12", "assay": "log2 mean competition ratio of IA-DTB cysteine labelling (DMSO/compound) (log2 ratio); higher = stronger cysteine engagement by compound", "conditions": "50 µM; treatment time: 4 h; cell line lysate: HEK293T", "description": "(§1)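 IA-DTB competitive cysteine chemoproteomics in HEK293T RIPA lysate. Lysates were treated with compound 29 or 30 at 50 or 200 µM for 4 h, then IA-DTB (500 µM, 1 h), trypsin-digested, NeutrAvidin-enriched and analysed by diaPASEF. Competition ratio = intensity DMSO / intensity compound (n=4 treated, n=64 DMSO); binding: mean log2 CR ≥ 1 and p ≤ 0.05 plus QC filters. Target is the cysteine site.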", "values": [{"target": "TEDC1 C461 (UniProt Q86SX3)", "log2 mean competition ratio": 0.169}, {"target": "TEX264 C165 (UniProt Q9Y6I9)", "log2 mean competition ratio": 0.456}, {"target": "TANC1 C1611 (UniProt Q9C0D5)", "log2 mean competition ratio": -0.0344}, {"target": "TBCC C6 (UniProt Q15814)", "log2 mean competition ratio": 0.0156}, {"target": "TET2 C1811 (UniProt Q6N021)", "log2 mean competition ratio": 0.171}, {"target": "TICRR C1626 (UniProt Q7Z2Z1)", "log2 mean competition ratio": -0.00816}, {"target": "TBC1D13 C282 (UniProt Q9NVG8)", "log2 mean competition ratio": 0.0111}, {"target": "TACC1 C514 (UniProt O75410)", "log2 mean competition ratio": -0.049}, {"target": "TARBP1 C1556 (UniProt Q13395)", "log2 mean competition ratio": 0.0295}, {"target": "TBL2 C391 (UniProt Q9Y4P3)", "log2 mean competition ratio": -0.029}, {"target": "TATDN2 C602 (UniProt Q93075)", "log2 mean competition ratio": -0.144}, {"target": "TAF1B C189 (UniProt Q53T94)", "log2 mean competition ratio": 0.0816}, {"target": "TAF3 C431 (UniProt Q5VWG9)", "log2 mean competition ratio": -0.104}, {"target": "TACC1 C78 (UniProt O75410)", "log2 mean competition ratio": -0.048}, {"target": "TBC1D22B C144 (UniProt Q9NU19)", "log2 mean competition ratio": -0.0696}, {"target": "TBC1D24 C161 (UniProt Q9ULP9)", "log2 mean competition ratio": -0.0292}, {"target": "THOC5 C208 (UniProt Q13769)", "log2 mean competition ratio": 0.11}, {"target": "TBX3 C404 (UniProt O15119)", "log2 mean competition ratio": -0.154}, {"target": "TACC3 C426", "log2 mean competition ratio": -0.0612}, {"target": "TBC1D5 C706 (UniProt Q92609)", "log2 mean competition ratio": -0.302}]}, {"compound": "ClCC(=O)N[C@@H]1CCCc2ccccc12", "assay": "log2 mean competition ratio of IA-DTB cysteine labelling (DMSO/compound) (log2 ratio); higher = stronger cysteine engagement by compound", "conditions": "200 µM; treatment time: 4 h; cell line lysate: HEK293T", "description": "as §1", "values": [{"target": "TEDC1 C461 (UniProt Q86SX3)", "log2 mean competition ratio": 0.272}, {"target": "TEX264 C165 (UniProt Q9Y6I9)", "log2 mean competition ratio": 0.0659}, {"target": "TANC1 C1611 (UniProt Q9C0D5)", "log2 mean competition ratio": 0.0756}, {"target": "TBCC C6 (UniProt Q15814)", "log2 mean competition ratio": -0.172}, {"target": "TET2 C1811 (UniProt Q6N021)", "log2 mean competition ratio": 0.0948}, {"target": "TICRR C1626 (UniProt Q7Z2Z1)", "log2 mean competition ratio": -0.0507}, {"target": "TBC1D13 C282 (UniProt Q9NVG8)", "log2 mean competition ratio": -0.242}, {"target": "TACC1 C514 (UniProt O75410)", "log2 mean competition ratio": 0.0949}, {"target": "TARBP1 C1556 (UniProt Q13395)", "log2 mean competition ratio": -0.283}, {"target": "TBL2 C391 (UniProt Q9Y4P3)", "log2 mean competition ratio": -0.111}, {"target": "TATDN2 C602 (UniProt Q93075)", "log2 mean competition ratio": -0.0743}, {"target": "TAF1B C189 (UniProt Q53T94)", "log2 mean competition ratio": 0.0331}, {"target": "TAF3 C431 (UniProt Q5VWG9)", "log2 mean competition ratio": 0.0261}, {"target": "TACC1 C78 (UniProt O75410)", "log2 mean competition ratio": -0.0343}, {"target": "TBC1D22B C144 (UniProt Q9NU19)", "log2 mean competition ratio": 0.188}, {"target": "TBC1D24 C161 (UniProt Q9ULP9)", "log2 mean competition ratio": 0.0819}, {"target": "THOC5 C208 (UniProt Q13769)", "log2 mean competition ratio": -0.165}, {"target": "TBX3 C404 (UniProt O15119)", "log2 mean competition ratio": 0.393}, {"target": "TACC3 C426", "log2 mean competition ratio": -0.0672}, {"target": "TBC1D5 C706 (UniProt Q92609)", "log2 mean competition ratio": 0.163}]}]}
